From article PMC9816108
Results are given in words; binding and its absence hold for the method and conditions named. In cells and extracts the contact can be indirect. A yes stands for co-enrichment or nearness to the bait. Other partners may have been found. No binding means not detected with the bait. Tags and fused reporters may be left off the sequences shown.

Biological target: T1, GABAA receptor α2 subunit modified with pHluorin and 9E10 (myc) epitope on its N-terminus (mouse (knock-in, forebrain)), P26048
T1 chain: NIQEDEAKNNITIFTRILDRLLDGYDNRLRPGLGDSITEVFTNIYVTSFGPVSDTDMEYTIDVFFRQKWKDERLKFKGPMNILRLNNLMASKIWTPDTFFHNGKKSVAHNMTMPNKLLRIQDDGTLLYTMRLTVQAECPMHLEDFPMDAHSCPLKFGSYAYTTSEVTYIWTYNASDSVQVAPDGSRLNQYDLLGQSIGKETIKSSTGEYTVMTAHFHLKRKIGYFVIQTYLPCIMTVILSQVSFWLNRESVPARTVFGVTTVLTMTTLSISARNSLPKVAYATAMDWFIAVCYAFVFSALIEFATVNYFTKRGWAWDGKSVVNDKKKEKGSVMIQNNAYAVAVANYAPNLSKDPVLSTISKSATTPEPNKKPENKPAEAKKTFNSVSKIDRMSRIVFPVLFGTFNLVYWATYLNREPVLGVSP
Assay: affinity purification with mass spectrometry; mouse forebrain plasma membranes solubilised in 0.5% Triton; α1 receptors with immobilised α1 monoclonal antibody from wild type tissue, α2 receptors with anti-9E10 (myc) beads from pHα2 tissue; soft elution, BN-PAGE, 250 kDa band excised, LC-MS/MS against control purifications
Details: remark: other sources report otherwise

binding: no binding
B1: GABAA receptor α5 subunit, Q8BHJ7 26-463 (receptor)
chain: SHFGFSQMPTSSVQDETNDNITIFTRILDGLLDGYDNRLRPGLGERITQVRTDIYVTSFGPVSDTEMEYTIDVFFRQSWKDERLRFKGPMQRLPLNNLLASKIWTPDTFFHNGKKSIAHNMTTPNKLLRLEDDGTLLYTMRLTISAECPMQLEDFPMDAHACPLKFGSYAYPNSEVVYVWTNGSTKSVVVAEDGSRLNQYHLMGQTVGTENISTSTGEYTIMTAHFHLKRKIGYFVIQTYLPCIMTVILSQVSFWLNRESVPARTVFGVTTVLTMTTLSISARNSLPKVAYATAMDWFIAVCYAFVFSALIEFATVNYFTKRGWAWDGKKALEAAKIKKKERELILNKSTNAFTTGKLTHPPNIPKEQPPAGTANAPTVSIKASEEKTAESKKTYNSISKIDKMSRIVFPILFGTFNLVYWATYLNREPVIKGATSPK
